The assay deals with T1, IRAK4 (mouse) (UniProt Q8R4K2).
T1 sequence (looked up): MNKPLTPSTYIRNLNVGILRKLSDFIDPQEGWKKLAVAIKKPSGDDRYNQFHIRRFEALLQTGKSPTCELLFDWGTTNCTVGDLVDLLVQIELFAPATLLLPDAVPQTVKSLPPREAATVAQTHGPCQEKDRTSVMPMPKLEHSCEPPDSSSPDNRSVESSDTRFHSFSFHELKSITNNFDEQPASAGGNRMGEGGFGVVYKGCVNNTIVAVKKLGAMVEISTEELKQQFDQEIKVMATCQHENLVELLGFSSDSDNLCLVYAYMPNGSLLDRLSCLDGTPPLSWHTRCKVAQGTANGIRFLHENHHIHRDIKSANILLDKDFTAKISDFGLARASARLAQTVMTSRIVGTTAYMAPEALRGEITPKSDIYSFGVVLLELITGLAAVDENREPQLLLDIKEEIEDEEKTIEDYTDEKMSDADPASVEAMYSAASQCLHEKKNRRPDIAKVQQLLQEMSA
As to the kind of experiment: co-immunoprecipitation of IRAK4 with MyD88 from LPS-treated iMΦ lysates, Western analysis.

Protein sequences, listed by entry. Tags and fused reporters are not part of them.
UniProt P22366: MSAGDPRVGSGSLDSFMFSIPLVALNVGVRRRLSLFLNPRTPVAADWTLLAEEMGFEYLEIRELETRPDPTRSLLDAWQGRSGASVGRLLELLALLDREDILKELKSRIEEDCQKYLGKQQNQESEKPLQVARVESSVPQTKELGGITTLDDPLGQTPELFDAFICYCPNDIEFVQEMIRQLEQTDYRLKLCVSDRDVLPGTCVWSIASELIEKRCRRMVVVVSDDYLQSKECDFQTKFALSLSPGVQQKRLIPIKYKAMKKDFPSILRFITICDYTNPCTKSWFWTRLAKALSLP

No constants are given. Whether binding was seen depends on the method and setting. Binding seen in cells or lysates may run through a third protein. Some entries that bind do so weakly or less than the wild type.

As to MyD88 (from UniProt P22366 1-296), the binding result is given as “binds”.

For the origin of these results see patent US20250025552A1 (published 2025).
